# PubChem BioAssay AID493246 | Drosophila RNAi Screening Center | 2011
# Test: 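Identify essential fly genes by loss of cell viability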 (primary screen)
# Cell system: Drosophila Kc and S2R+ cells
# Knock-down reagent: long dsRNA against Drosophila genes
# Detection: 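Raw, unnormalised count of remaining cells in each well; per-plate z-scores of cell number underlie the calls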
# Reading the numbers: Kc cell number and S2R+ cell number: higher = more cells remaining
# Rule for the call: 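Counted as a hit if cell number falls by a z-score of at least 3 within its plate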
# In all, the deposit lists about 21,000 reagents; below is a random part of those with a known target gene and a result. Over the whole deposit, 429 (2%) are marked active. 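Values are raw and not normalised between plates; calls rest on per-plate z-scores that were not deposited.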 Entries without a mark were called inactive. Reagents against one gene are numbered here. The record does not give: the amount of reagent, the time to read-out.
gene,dsRNA no.,"Kc cell number, rep 1","Kc cell number, rep 2","S2R+ cell number, rep 1","S2R+ cell number, rep 2"
colt (congested-like trachea),1,1.28e6,1.31e6,1.01e6,1.09e6
Obp50e (Odorant-binding protein 50e),1,1.65e6,1.59e6,1.36e6,1.42e6
CG18467,1,1.78e6,1.85e6,1.35e6,1.53e6
SkpB (SKP1-related B),1,1.64e6,1.68e6,1.25e6,1.38e6
hydra,1,1.45e6,1.45e6,1.10e6,1.14e6
Ctu2 (Cytosolic thiouridylase subunit 2),1,1.45e6,1.47e6,1.34e6,1.42e6
CG5597,1,1.57e6,1.63e6,1.02e6,1.09e6
COX6CL (Cytochrome c oxidase subunit 6C-like),1,1.49e6,1.84e6,1.13e6,1.23e6
ari-2 (ariadne 2),1,1.63e6,1.64e6,1.28e6,8.06e5

3 of these entries in another layout:
| gene | dsRNA no. | Kc cell number, rep 1 | Kc cell number, rep 2 | S2R+ cell number, rep 1 | S2R+ cell number, rep 2 |
| --- | --- | --- | --- | --- | --- |
| Ctu2 (Cytosolic thiouridylase subunit 2) | 1 | 1.45e6 | 1.47e6 | 1.34e6 | 1.42e6 |
| CG5597 | 1 | 1.57e6 | 1.63e6 | 1.02e6 | 1.09e6 |
| COX6CL (Cytochrome c oxidase subunit 6C-like) | 1 | 1.49e6 | 1.84e6 | 1.13e6 | 1.23e6 |

More reagents follow:
gene,dsRNA no.,"Kc cell number, rep 1","Kc cell number, rep 2","S2R+ cell number, rep 1","S2R+ cell number, rep 2"
SNF4Agamma (SNF4/AMP-activated protein kinase gamma subunit),1,1.49e6,1.44e6,1.06e6,1.10e6
SNF4Agamma (SNF4/AMP-activated protein kinase gamma subunit),2,1.47e6,1.41e6,1.02e6,1.13e6
SNF4Agamma (SNF4/AMP-activated protein kinase gamma subunit),3,1.27e6,1.34e6,8.40e5,9.92e5
SNF4Agamma (SNF4/AMP-activated protein kinase gamma subunit),4,1.90e6,1.97e6,1.52e6,1.56e6
sturkopf,1,1.35e6,1.42e6,1.19e6,1.15e6
CG5196,1,1.44e6,1.54e6,1.38e6,1.51e6
Ssk (Snakeskin),1,1.67e6,1.68e6,1.24e6,1.29e6
enc (encore),1,1.23e6,1.28e6,1.00e6,1.22e6
Ca-alpha1D (Ca[2+]-channel protein alpha[[1]] subunit D),1,1.35e6,1.38e6,1.35e6,1.37e6
5-HT1B (5-hydroxytryptamine (serotonin) receptor 1B),1,1.72e6,1.87e6,1.31e6,1.61e6
5-HT1B (5-hydroxytryptamine (serotonin) receptor 1B),2,1.05e5 (active),,2.88e5,
Rab3GAP1 (RAB3 GTPase activating protein subunit 1),1,1.63e6,1.64e6,1.14e6,1.29e6
Rab3GAP1 (RAB3 GTPase activating protein subunit 1),2,1.64e6,1.69e6,1.17e6,1.34e6
CG16978,1,1.61e6,1.64e6,1.31e6,1.47e6
"ATPsynO (ATP synthase, oligomycin sensitivity conferring protein)",1,1.62e6,1.76e6,1.13e6,1.25e6
